In PMC2844433, “Polo-Like Kinase 2-Dependent Phosphorylation of NPM/B23 on Serine 4 Triggers Centriole Duplication” (PLoS ONE, 2010):
No constants are given. Whether binding was seen depends on the method and setting. In cells and extracts the contact can be indirect. Here binding means that the protein was enriched with, or labelled near, the bait; the list need not be complete. Tags and fused reporters may be left off the sequences shown.

Chains of the proteins cited; added tags and fusions are not shown.
UniProt P06748: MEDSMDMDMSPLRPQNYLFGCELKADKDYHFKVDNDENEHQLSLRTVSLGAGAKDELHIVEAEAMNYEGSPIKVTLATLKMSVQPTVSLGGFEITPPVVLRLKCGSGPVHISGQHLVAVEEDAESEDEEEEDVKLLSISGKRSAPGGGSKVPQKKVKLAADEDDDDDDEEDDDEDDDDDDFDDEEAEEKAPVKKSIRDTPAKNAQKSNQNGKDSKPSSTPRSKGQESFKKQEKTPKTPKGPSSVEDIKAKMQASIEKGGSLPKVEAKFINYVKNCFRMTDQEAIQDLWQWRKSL

Target: T1, EGFP-tagged Plk2 kinase-inactive mutant (Plk2 KD, N210A) (UniProt Q9NYY3)
T1 sequence: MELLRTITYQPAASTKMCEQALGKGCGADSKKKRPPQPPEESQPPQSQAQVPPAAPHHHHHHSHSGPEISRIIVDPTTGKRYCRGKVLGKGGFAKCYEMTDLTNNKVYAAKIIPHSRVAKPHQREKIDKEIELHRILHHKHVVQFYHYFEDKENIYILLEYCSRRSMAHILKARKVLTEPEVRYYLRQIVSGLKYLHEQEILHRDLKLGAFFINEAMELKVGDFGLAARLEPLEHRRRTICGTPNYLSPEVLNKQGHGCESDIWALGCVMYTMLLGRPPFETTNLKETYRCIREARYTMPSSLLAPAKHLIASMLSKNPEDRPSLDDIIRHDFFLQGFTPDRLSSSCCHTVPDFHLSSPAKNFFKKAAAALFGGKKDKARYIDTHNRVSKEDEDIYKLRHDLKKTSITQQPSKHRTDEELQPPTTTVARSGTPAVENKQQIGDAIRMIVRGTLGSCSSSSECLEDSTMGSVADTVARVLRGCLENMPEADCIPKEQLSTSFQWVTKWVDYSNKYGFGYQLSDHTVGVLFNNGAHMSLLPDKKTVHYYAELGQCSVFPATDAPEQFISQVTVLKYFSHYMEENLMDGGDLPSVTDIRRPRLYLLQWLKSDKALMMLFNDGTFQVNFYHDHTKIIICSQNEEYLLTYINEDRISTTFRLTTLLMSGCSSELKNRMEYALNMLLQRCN
Test: affinity purification with mass spectrometry; EGFP-Plk2 KD or EGFP alone overexpressed in HeLa cells, immunoprecipitated with anti-GFP antibodies; SDS-PAGE, silver staining, bands cut out and analysed by nanoHPLC ESI QTOF MS

With “NPM/B23 (Nucleophosmin), endogenous in HeLa cells (from UniProt P06748 1-294)” the binding was “binds”.
